Data from the supplement of paper PMC4683952.
The other results are listed elsewhere or left out. No stated cut-off is given here; in the data, active = 2 or more and inactive = the rest. Single values are uncertain here, since repeats match poorly.

Tested on: Lgr5 (MarsCy1-Lgr5-EGFP, U2OS)
Assay: cell-surface Lgr5 expression (SCi1 fluorescence, background-subtracted) relative to WT DMSO (fold of DMSO control); higher = more Lgr5 at the plasma membrane
Details: U2OS MarsCy1-Lgr5-EGFP stable; treatment time: overnight; library: ActiProbe-5K (TimTec); 25 µM

cell-surface Lgr5 expression, active:
OCCCc1nc2ccccc2[nH]1 3.1, O=[N+]([O-])c1ccc(F)c(/N=C\c2ccc([N+](=O)[O-])o2)c1 2.23

cell-surface Lgr5 expression, inactive:
Fc1cccc(Cl)c1C1Nc2cccc3cccc(c23)N1 0.771, CC(C)c1ccc2c(c1)c1c3n2CCNC3CCC1 (stereo not drawn) 1.85, CC12CC3CC(C)(C1)CC(CC(=O)N1CCN(S(C)(=O)=O)CC1)(C3)C2 1.16, Cc1ccc(C2C(C#N)=C(N)Oc3[nH]nc(C(C)(C)C)c32)s1 (stereo not drawn) 1.23, O=C(Cc1cccs1)NC1CCCC1 1.04, CCCCNC(=O)n1cc(Cl)cn1 1.34, Cl.N=C(N)NC(=N)N1CCOCC1 1.38, Brc1ccc2c(c1)sc1cc(Br)ccc12 1.25, Nc1cc(-c2ccccc2)c2ccccc2n1 1.1, c1ccc2cc(-n3cccc3)ccc2c1 1.09, CC(=O)c1onc(C(N)=O)c1N 0.952, c1ccc(N(c2ccccc2)c2nc(-n3ccnc3)nc(-n3ccnc3)n2)cc1 1.05, Cc1cc(C)n(CNc2nc3c(s2)C(=O)CC(C)(C)C3)n1 0.937, O=[N+]([O-])c1ccc2nc(CSc3nc4ccc(Br)cc4[nH]3)[nH]c2c1 0.876, Cn1nc(C(=O)O)c(Br)c1[N+](=O)[O-] 0.96, O=C(NCc1ccco1)c1scc2c1OCCO2 0.833, Nc1nc(-c2sc3nc4c(cc3c2N)CCCC4)nc(N2CCOCC2)n1 1.51, COc1ccc(S(=O)(=O)[O-])c2ccccc12 1.17, c1ccc(-c2nc(Sc3nc(-c4ccccc4)nc4ccccc34)c3ccccc3n2)cc1 1.06, Cc1ccc(-c2nnc(S)n2/N=C\c2ccc(C(C)C)cc2)cc1 1.32, Cc1ccc(C2C(C#N)=C(N)Oc3cc(C)oc(=O)c32)o1 (stereo not drawn) 0.971, S=C1COC(c2ccc(Br)cc2)N1c1ccccc1 (stereo not drawn) 1.24, Oc1cc(O)c2sc3nc(-c4ccccc4)ccc3c2n1 1.12, S(CC12[C@@]([C@@H](CC2)CC1=O)(C)C)(=O)(=O)N 1.16, Cc1[nH]c2ccc(F)cc2c(=O)c1SC(F)(F)C(F)F 1.07, CN1c2cnc(N)nc2-c2sccc2S1(=O)=O 1.5, Cc1sc(/N=C\c2ccc(Br)s2)c(C(N)=O)c1C 1.59, COc1cc(OC)c(OC)cc1/C=N/n1c(S)nnc1-c1cc(OC)c(OC)c(OC)c1 1.12, COC(=O)c1c(NC(=O)C(F)(F)F)sc2c1C(C(=O)OC)CC2 (stereo not drawn) 1.24, O=S(=O)(NCCCO)c1ccc2c(c1)Cc1cc(S(=O)(=O)NCCCO)ccc1-2 1.05, C(=N/N=C(c1ccccc1)c1ccccc1)/c1ccc2c(c1)OCO2 1.29, CCn1cc(Cn2nc(C)c(N)c2C)c(C)n1 1.24, CC(C)(C)c1[nH]nc2c1C(c1ccc(Cl)s1)C(C#N)=C(N)O2 (stereo not drawn) 1.24, Cc1scc(CO)c1C 1.29, c1(c(c(COCC)c(cc1C)C)C)/C=C(/C#N)C#N 1.15, O=C(/C=C/n1c(=S)oc2ccccc21)c1ccccc1 0.467, CCCOc1nccc2c1n(C)c(=O)n2C 1.05, COC(=O)/C(C#N)=C/c1ccc([N+](=O)[O-])o1 1.87, c1ccc(NC(/N=S(\c2ccccc2)c2ccccc2)=S)cc1 1.44, Cn1c(=O)c2c(nc(N3CCCC3)n2C)n(C)c1=O 0.968, CC1(C)Nc2sc3c(c2-c2nnnn21)CCCC3 1.46, c1(/c(nc2ccccc2nc1C)C)=N\OCc1ccc(cc1)C 0.996, CCN(CC)CCCNCC(=O)NC1(C)C2CCC(C2)C1(C)C (stereo not drawn) 1.54, CSc1nc2ccccc2[nH]c1=O 1.06, CC1(C)Cc2ccccc2/C(=C/c2ccc3ccccc3n2)N1 1.09, O=C(Cn1nc(C(F)(F)F)c(Cl)c1C1CC1)N1CCN2CCCC2C1 (stereo not drawn) 1.27, S=c1[nH]nc(-c2cccc(Br)c2)[nH]1 1.16, COc1cc2c3c(ccc2c(OC)c1OC)-c1[nH]ncc1CC3 0.895, FC(F)(F)c1nnc2ccc(N3CCCCCC3)nn12 1.12, Cc1n[nH]c(C)c1Br 1.23, Cc1ccc2c(c1)-c1c(ss/c1=N/c1cc(Cl)ccc1Cl)C(C)(C)N2 1.13, O=C(NC1C2CC3CC(C2)CC1C3)c1ccc(=O)[nH]n1 (stereo not drawn) 1.16, Clc1ccc(OCc2cn3ccccc3n2)c2ncccc12 1.12, O=S(=O)(c1ccc2c(c1)OCCO2)N1CCCCC1 1.04, CC(C)(C)C1CCc2c(sc3c2C(=O)NC(c2ccco2)N3)C1 (stereo not drawn) 0.986, NC(=O)Cn1cc([N+](=O)[O-])cn1 1.37, O=C(O)C1CSC(c2ccco2)N1 (stereo not drawn) 1.01, C1(=C(\C#N)C#N)/C(C2=CCCCC2)CCCC1 (stereo not drawn) 1.35, CC(C)(C)C1CC=C2[C@H](C1)[C@@H](c1ccsc1)C(C#N)=C(N)C2(C#N)C#N (stereo partly drawn) 1.3, Brc1ccc(/C=N\c2cccc3ccccc23)s1 0.79, O=[N+]([O-])c1ccc(/C=N/N(CCO)C2=NS(=O)(=O)c3ccccc32)o1 0.626, c1ccc(Sc2ncnc3c2oc2ccccc23)cc1 1.19, COc1nsc(SC)c1C(N)=O 0.894, N#Cc1sc2c(C#N)c(N)sc2c1N 1.29, COc1ccc(C2=Nn3c(nnc3-c3ccccc3F)SC2)cc1 1.3, N#CCCNNC1=NS(=O)(=O)c2ccccc21 1.16, FC(F)(F)c1ccc2c(c1)nc1ccccn12 0.94, COc1cc(Br)c(Br)cc1N 1.08, Oc1[nH]nc2nc(C(F)(F)F)cc(C(F)(F)F)c12 1.36, COc1cc(CC2CC(CO)=NO2)cc2c1OCO2 (stereo not drawn) 1.12, C(#Cc1ccc2oc3ccc(C#Cc4ccccc4)cc3c2c1)c1ccccc1 1.12, CCOC(=O)c1c(C)n[n+]2c(C(=O)OCC)c(C)[n-]n12 1.08, CCCCSc1nc(=O)cc(C)[nH]1 1.04, COc1cc(C2C=C(c3ccc4c(c3)OCO4)Nc3ncnn32)cc(OC)c1OC (stereo not drawn) 1.15, Cc1nnc(SCC(N)=O)s1 1.23, Brc1ccc(/C=N\c2ccccn2)s1 1.06, N#CC1=C(N)C(C#N)(C#N)C(c2cccs2)C2CCCC=C12 (stereo not drawn) 1.49, Nc1ccc2oc(-c3cc(Cl)ccc3Cl)nc2c1 1.36, CS(=O)(=O)N1CCc2cc([N+](=O)[O-])ccc21 1.23, CN1CCN(/C(=N/O)c2nonc2N)CC1 1.25, c1ccc(CN(/N=c2/cc(-c3ccccc3)n(-c3ccccc3)cn2)c2ccccc2)cc1 1.12, C/C(=N/O)C1C(=O)c2ccccc2C1=O 1.1, Clc1nc2nonc2nc1Nc1ccc(Br)cc1 1.02, CC1=NN(c2ccccc2)C(=S)/C1=C/Nc1ccc([N+](=O)[O-])cc1[N+](=O)[O-] 1.21, Oc1ccc(Br)cc1/C=N\c1nccs1 0.873, Fc1cccc(Cl)c1-c1nnc2ccc(C(F)(F)F)cn12 1.31, CC1(C)CN=C(N2CCN(CC(O)COc3ccc(OCC(O)CN4CCN(C5=NCC(C)(C)S5)CC4)cc3)CC2)S1 (stereo not drawn) 1.92, n1(nc(C)cc1C)C(C\C(=C(\Cl)Cl)Cl)=O 1.19, Cc1nnc(SCC(=O)NC2CC3CCC2(C)C3(C)C)n1N (stereo not drawn) 1.05, N#Cc1c(SCC(N)=O)sc2c(O)cc(=O)[nH]c12 1.37, CC1(C)Cc2c(sc3ncnc(N)c23)CO1 1.11, O=[N+]([O-])c1ccc2[nH]c(=S)[nH]c2c1 1.22, CCNc1nc(N2CCCC2)nc(N2CCCC2)n1 1.6, CCNC(=S)NN1CCOCC1 1.22, C/C(=N/O)c1ccc(Br)cc1 1.05, Cc1c(C#N)c(N)n(CCCn2ccnc2)c1C 1.26, Cc1nn2c3ccccc3nc2n1C 1.03, O=C(/C=C\[O][Na])c1ccc2c(c1)OCO2 1.17, NC1=NC2(CCCCC2)N(c2ccc(F)cc2)C(N)=N1 1.36, COc1cccc(Oc2nonc2N)c1 1.28, O=C(O)CCNC1CCS(=O)(=O)C1 (stereo not drawn) 1.28, Nc1nn(-c2ccccc2)c(=S)[nH]1 0.997, Cc1cc(C(F)(F)F)n2ncnc2n1 0.931, O=C(NCC1CCCO1)C(=O)N/N=C/c1c2ccccc2cc2ccccc12 (stereo not drawn) 0.964, CC1CCc2c(sc(/N=C\c3ccc(-c4cccs4)s3)c2C#N)C1 (stereo not drawn) 1.16, Cc1sc2ncnc(SCC(=O)O)c2c1C 1.25
